Results reported in article PMC7919321.

Amino acid sequences for entries named in this document (tags omitted). A change or cut given only in a name is not applied to a line headed by its entry.
UniProt P12830: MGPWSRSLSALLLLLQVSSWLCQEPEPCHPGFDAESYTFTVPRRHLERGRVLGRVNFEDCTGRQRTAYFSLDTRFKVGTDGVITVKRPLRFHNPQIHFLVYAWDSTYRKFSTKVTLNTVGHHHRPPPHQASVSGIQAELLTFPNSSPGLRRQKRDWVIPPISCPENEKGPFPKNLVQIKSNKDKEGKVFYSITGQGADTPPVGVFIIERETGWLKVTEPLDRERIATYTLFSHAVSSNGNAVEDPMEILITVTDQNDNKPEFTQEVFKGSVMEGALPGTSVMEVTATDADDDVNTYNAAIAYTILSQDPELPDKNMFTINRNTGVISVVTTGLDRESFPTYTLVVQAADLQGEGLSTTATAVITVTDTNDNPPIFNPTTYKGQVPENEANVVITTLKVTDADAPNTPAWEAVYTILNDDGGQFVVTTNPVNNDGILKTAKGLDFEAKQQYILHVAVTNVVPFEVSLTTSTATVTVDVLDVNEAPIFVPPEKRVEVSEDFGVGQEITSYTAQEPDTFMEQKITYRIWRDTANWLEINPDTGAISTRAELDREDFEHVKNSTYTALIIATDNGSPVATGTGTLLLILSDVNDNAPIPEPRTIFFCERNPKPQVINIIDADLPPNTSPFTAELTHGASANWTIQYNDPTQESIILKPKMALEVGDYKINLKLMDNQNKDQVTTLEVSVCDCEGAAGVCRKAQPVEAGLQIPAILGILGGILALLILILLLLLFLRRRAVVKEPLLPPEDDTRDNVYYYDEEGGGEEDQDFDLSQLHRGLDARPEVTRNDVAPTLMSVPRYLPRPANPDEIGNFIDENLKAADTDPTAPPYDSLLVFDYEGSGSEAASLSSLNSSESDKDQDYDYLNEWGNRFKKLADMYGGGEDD

Molecular target: T1, TMEM52B isoform 2, myc-tagged (transmembrane protein 52B) (human) (UniProt Q4KMG9)
T1 sequence: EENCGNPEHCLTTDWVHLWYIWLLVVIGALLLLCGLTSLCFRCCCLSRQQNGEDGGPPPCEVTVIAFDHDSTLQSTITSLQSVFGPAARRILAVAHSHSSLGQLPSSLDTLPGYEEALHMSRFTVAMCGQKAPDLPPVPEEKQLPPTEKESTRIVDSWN
Test: co-IP; HEK293E cells co-transfected with myc-tagged TMEM52B and E-cadherin; lysis and washes in 10 mM Tris pH 7.4, 150 mM NaCl, 0.56 mM EGTA, 1% Triton X-100, 0.5% NP-40; immunoprecipitated with anti-myc at 4 °C for 16 h; blotted with anti-myc and anti-E-cadherin

Substance: E-cadherin (human, from an expression vector) (from UniProt P12830)
- binding: binds

These are yes or no findings as the source states them, for the method shown. In cells and extracts the contact can be indirect. Binding can be weak; no strength is given. Tags and fused reporters may be left off the sequences shown.
